PubChem BioAssay AID1259254 – NCATS – 2017
In all, the deposit lists about 59,000 reagents; shown is a random part of them. About 1,550 of all reagents (2.6%) were called active. 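G2 share is only a proxy for re-replication; each gene was hit by three separate siRNAs, and active genes were retested.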 The numbers tell different reagents against one gene apart. Not all columns of the deposit are shown. Not stated in the record: the amount of reagent.

- Assay: 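Finding genes that stop cells copying their DNA twice in one cycle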 (primary screen)
- System: human HCT116 colorectal cancer cells
- Reagent: single siRNA against human genes
- Time to read-out: 3 days
- Measured: 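Nuclei stained with Hoechst and imaged; cell-cycle phase assigned by DNA content; G2 share scaled per plate, non-targeting siRNA 0%, GMNN siRNA 100%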
- Scale: G2 robust z-score and G2 cells, % of GMNN control: higher = more G2 cells, more excess DNA replication
- Active means: 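Active siRNAs have a G2 robust z of 5 or more median absolute deviations over the median, which in these data means about 38% or higher of GMNN control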

gene knocked down,reagent no.,G2 robust z-score,"G2 cells, % of GMNN control",Call
KPNA5,1,0.755,8.28,inactive
KPNA5,2,3.55,28,inactive
KPNA5,3,1.66,14.7,inactive
LTBP3,1,-0.486,-0.449,inactive
LTBP3,2,-1.28,-6.01,inactive
LTBP3,3,-0.864,-3.11,inactive
LPCAT2,1,-1.13,-4.97,inactive
LPCAT2,2,0.272,4.88,inactive
LPCAT2,3,0.459,6.2,inactive
STAT5A,1,-0.481,-0.42,inactive
STAT5A,2,0.222,4.53,inactive
STAT5A,3,1.12,10.9,inactive
TKFC,1,-0.827,-2.85,inactive
TKFC,2,0.208,4.43,inactive
TKFC,3,0.295,5.04,inactive
DNA2,1,4.96,37.9,inactive
DNA2,2,0.782,8.47,inactive
DNA2,3,1.46,13.2,inactive
LIG1,1,-0.0571,2.57,inactive
LIG1,2,-0.847,-2.99,inactive
LIG1,3,-0.84,-2.94,inactive
KDM6A,1,-0.204,1.53,inactive
KDM6A,2,-0.612,-1.34,inactive
KDM6A,3,-0.357,0.453,inactive
FXYD7,1,1.84,15.9,inactive
FXYD7,2,-0.413,0.0589,inactive
FXYD7,3,-0.732,-2.18,inactive
MIER1,1,-0.0406,2.68,inactive
MIER1,2,-0.156,1.87,inactive
MIER1,3,-0.984,-3.95,inactive
PIK3CD,1,-0.555,-0.937,inactive
PIK3CD,2,-0.436,-0.1,inactive
PIK3CD,3,-0.211,1.48,inactive
IL5,1,2.89,23.3,inactive
IL5,2,-0.661,-1.68,inactive
IL5,3,0.503,6.5,inactive
ZNF839P4,1,2.2,18.5,inactive
ZNF839P4,2,-0.431,-0.0667,inactive
ZNF839P4,3,0.0823,3.55,inactive
ZNF839P4,4,-0.302,0.842,inactive
ZNF839P4,5,0.599,7.18,inactive
ZNF839P4,6,1.33,12.4,inactive
ZNF839P4,7,2.12,17.9,inactive
ZNF839P4,8,-0.791,-2.6,inactive
ZNF839P4,9,1.99,17,inactive
IL12RB1,1,-0.818,-2.79,inactive
IL12RB1,2,-0.822,-2.81,inactive
IL12RB1,3,0.141,3.96,inactive
DAPK2,1,-0.539,-0.828,inactive
DAPK2,2,1.56,13.9,inactive
DAPK2,3,1.37,12.6,inactive
TMCO5B,1,-0.805,-2.69,inactive
TMCO5B,2,0.187,4.28,inactive
TMCO5B,3,-0.587,-1.17,inactive
KRTAP2-2,1,1.4,12.8,inactive
KRTAP2-2,2,-0.0355,2.72,inactive
KRTAP2-2,3,0.648,7.53,inactive
RPL13A,1,0.824,8.77,inactive
RPL13A,2,3.94,30.7,inactive
RPL13A,3,4.51,34.7,inactive
COMP,1,-0.124,2.1,inactive
COMP,2,2.54,20.8,inactive
COMP,3,-1.15,-5.14,inactive
KRTAP19-3,1,8.16,60.4,active
KRTAP19-3,2,1.9,16.3,inactive
KRTAP19-3,3,-1.9,-10.4,inactive
HECTD1,1,-0.799,-2.65,inactive
HECTD1,2,-0.422,-0.00513,inactive
HECTD1,3,-0.0116,2.89,inactive

9 entries from above, ordered by “G2 robust z-score”, descending.
gene knocked down,reagent no.,G2 robust z-score,"G2 cells, % of GMNN control",Call
STAT5A,3,1.12,10.9,inactive
LPCAT2,3,0.459,6.2,inactive
TKFC,3,0.295,5.04,inactive
LPCAT2,2,0.272,4.88,inactive
STAT5A,2,0.222,4.53,inactive
TKFC,2,0.208,4.43,inactive
STAT5A,1,-0.481,-0.42,inactive
TKFC,1,-0.827,-2.85,inactive
LPCAT2,1,-1.13,-4.97,inactive
